In test [1] the target is giantin (human (endogenous in HeLa, LNCaP, PC-3, liver tissue)) (UniProt Q14789). Put plainly: co-IP.
For test [2] the target is unchanged. Put plainly: co-IP. This is another data set of the same source.
Test [3] concerns the target T1, recombinant human N-terminal GST-giantin fusion peptide (3-92 aa) (human) (UniProt Q14789).
T1 sequence: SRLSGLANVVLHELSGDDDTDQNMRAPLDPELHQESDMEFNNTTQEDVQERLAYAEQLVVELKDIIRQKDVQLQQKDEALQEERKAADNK
Put plainly: pull-down.

Like-named read-outs stand apart in the source and are kept apart here. No constants are given. Whether binding was seen depends on the method and setting. Binding seen in cells or lysates may run through a third protein. Some entries that bind do so weakly or less than the wild type. Sequences can lack the tags named with a protein.

B1: mannosyl (alpha-1,3-)-glycoprotein beta-1,2-N-acetylglucosaminyltransferase (MGAT1) (enzyme, UniProt P26572 1-445)
chain: MLKKQSAGLVLWGAILFVAWNALLLLFFWTRPAPGRPPSVSALDGDPASLTREVIRLAQDAEVELERQRGLLQQIGDALSSQRGRVPTAAPPAQPRVPVTPAPAVIPILVIACDRSTVRRCLDKLLHYRPSAELFPIIVSQDCGHEETAQAIASYGSAVTHIRQPDLSSIAVPPDHRKFQGYYKIARHYRWALGQVFRQFRFPAAVVVEDDLEVAPDFFEYFRATYPLLKADPSLWCVSAWNDNGKEQMVDASRPELLYRTDFFPGLGWLLLAELWAELEPKWPKAFWDDWMRRPEQRQGRACIRPEISRTMTFGRKGVSHGQFFDQHLKFIKLNQQFVHFTQLDLSYLQREAYDRDFLARVYGAPQLQVEKVRTNDRKELGEVRVQYTGRDSFKAFAKALGVMDDLKSGVPRAGYRGIVTFQFRGRRVHLAPPLTWEGYDPSWN
In the case of B1, the binding result was “binds weakly” in test [1], “binds” in test [2] and “binds” in test [3].

Values taken from article doi:10.1101/296517.
